According to paper PMC7819943, “Rice protein-binding microarrays: a tool to detect cis-acting elements near promoter regions in rice”:
The other results are listed elsewhere or left out.

By UniProt entry, the sequences of proteins in these tests, tags left out.
UniProt Q0JBA9, entry or part of it: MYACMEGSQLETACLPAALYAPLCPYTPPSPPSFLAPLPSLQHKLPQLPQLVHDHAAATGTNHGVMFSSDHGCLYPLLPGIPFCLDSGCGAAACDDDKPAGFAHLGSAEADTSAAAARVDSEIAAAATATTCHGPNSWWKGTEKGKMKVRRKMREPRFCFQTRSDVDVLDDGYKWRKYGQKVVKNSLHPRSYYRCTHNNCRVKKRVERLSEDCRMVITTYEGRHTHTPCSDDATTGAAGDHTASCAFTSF

Each sequence was assayed against OsWRKY34 (Oryza sativa, UniProt Q0JBA9 1-250) (assay: protein-binding microarray (RPBM); PBS, 2% BSA, 51.3 ng/ul salmon testes DNA, 50 uM zinc acetate, 200 nM TF, 25 C, 1 h; high values mean tight binding). Details: protein: recombinant; tags: N-terminal polyhistidine and DsRed monomer fusion (pET32a); label: CyDye5-dUTP incorporated in the synthesized complementary strand; 3' TTTTT single-stranded linker to array surface; dsDNA, one strand shown.
How it was run: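 An Axon 4000B scanner gave the binding signal as per-feature fluorescence intensity in arbitrary units. This followed washing of a custom Agilent array that had been incubated for 1 h at 25 °C with 200 nM protein in PBS, 2% BSA, salmon testes DNA and 50 µM zinc acetate. The proteins were transcription factors fused at the N-terminus to polyhistidine and DsRed, expressed in E. coli BL21-CodonPlus and purified on Ni–NTA.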

Sequence	binding signal
TCTCTTCGCTCTGCCCACTTGCTAAACCATACCGGCGATACGGAGTCACCTAGTGCAG	9960 fluorescence intensity (a.u.)
AGGAGGAGGAGGAGGAGGAGGGGATTGTGACTTGTGATCTCGGAGTCACCTAGTGCAG	8450 fluorescence intensity (a.u.)
TTTCCGTCTCTCTCTCCTGTGCTGGCCGCAAGCGAAGTCCCGGAGTCACCTAGTGCAG	9040 fluorescence intensity (a.u.)
GCAAGTTTGACCAAATTAGTCTATTGTTTGGTTCATAGTCCGGAGTCACCTAGTGCAG	14300 fluorescence intensity (a.u.)
TGCCATAAAACCGACCCGTCACGTACTAAAAACTCCTTCCCGGAGTCACCTAGTGCAG	9780 fluorescence intensity (a.u.)
TTTATGCGTGACTTATCCTTTTATTTTTTTTCATAATTTTCGGAGTCACCTAGTGCAG	8290 fluorescence intensity (a.u.)
GAGGTGGTGGTGGTGGTGGTGGATGGCGCCCTGCTTTGACCGGAGTCACCTAGTGCAG	23500 fluorescence intensity (a.u.)
TTCGCTCACAAGTCGCAAACAGTGATTTCACCTATCCTGTCGGAGTCACCTAGTGCAG	8110 fluorescence intensity (a.u.)
TGTCTTTTCCTTTTGGCCCATCTCTCTCTTTAGCCCAGGCCGGAGTCACCTAGTGCAG	8150 fluorescence intensity (a.u.)
CATAATTATCCCATATTCTTATATCTCTATTCTATGCATTCGGAGTCACCTAGTGCAG	8900 fluorescence intensity (a.u.)
GTTTTGTTGGGTCGGCGGCGGCGGGTGAGAGTGGAGAATGCGGAGTCACCTAGTGCAG	12900 fluorescence intensity (a.u.)
CAATTTGGCATTTGGCATTTGCTAGTCTATAGTAGCAAATCGGAGTCACCTAGTGCAG	8130 fluorescence intensity (a.u.)
ATAGTAATTCCTCTTTTTCACAATGCAAGTCATTTTAGTACGGAGTCACCTAGTGCAG	8500 fluorescence intensity (a.u.)
GTTGGTCAAATTAAGTCAAGCTACGCACTCAGCCCTCTTTCGGAGTCACCTAGTGCAG	8050 fluorescence intensity (a.u.)
CATTCATGGGCCAAGTTTAGCCATCTTGTTATGTTACATCCGGAGTCACCTAGTGCAG	10500 fluorescence intensity (a.u.)
TTGAGGGGATTGTTGGGGAATGGGGCCTTATTAGGGATATCGGAGTCACCTAGTGCAG	11100 fluorescence intensity (a.u.)
TCTCACTTCCAGATGCGTGTTTTTTAGGCAACATGATTTCCGGAGTCACCTAGTGCAG	9900 fluorescence intensity (a.u.)
ATGACAATGGATACTTCTCAATATCTGTCCTAGTTTGTTTCGGAGTCACCTAGTGCAG	8110 fluorescence intensity (a.u.)
GCGTGACATCATCTTTATTTCGTTCGCTCCATCTCTGAACCGGAGTCACCTAGTGCAG	8260 fluorescence intensity (a.u.)
GTTGTCTCGTCTCGTCAGTTGAGTTGAGTAGTGTTGACTTCGGAGTCACCTAGTGCAG	9250 fluorescence intensity (a.u.)
ACACACAACATCACCTTGTTTCTTCTACGAGTGCTTCCGTCGGAGTCACCTAGTGCAG	8160 fluorescence intensity (a.u.)

Sequence	binding signal
TGATGATCGATTCAATCCTAGACTCCCAGTACCTCCATATCGGAGTCACCTAGTGCAG	8440 fluorescence intensity (a.u.)
CCGTTTCAGCCGTCCGATTTCACACGTGGACGTCCACGATCGGAGTCACCTAGTGCAG	11000 fluorescence intensity (a.u.)
GCACGGCTCATTTGCCACTACCGTGCTTGGGCCGGCGCTTCGGAGTCACCTAGTGCAG	10100 fluorescence intensity (a.u.)
TCCCACTTGCCGCGCCGCGCAGCCCAGCCATCCATCCACACGGAGTCACCTAGTGCAG	9140 fluorescence intensity (a.u.)
CGTATATGTTACAGTAAGCACGCCTCTTTCTCAATCATTGCGGAGTCACCTAGTGCAG	8280 fluorescence intensity (a.u.)
CTCCATCCGTTTTAAAATGTTTGACACCGTTGACTTTTTACGGAGTCACCTAGTGCAG	27300 fluorescence intensity (a.u.)
GGCCCTATTTAGATCTCCTGCCAAAATTTTACACTCTGTCCGGAGTCACCTAGTGCAG	10700 fluorescence intensity (a.u.)
AGTCCTTTTTGCTCCTCTATCTCTCAGATCTTCTGATCGACGGAGTCACCTAGTGCAG	10600 fluorescence intensity (a.u.)
TCCTATCATGCGTGTGCCTCTAGCCCCGGTAGTAATTAACCGGAGTCACCTAGTGCAG	8770 fluorescence intensity (a.u.)
ACCAGAAACATTCCATTTCCGTATACCTCGTCCTCGTGTCCGGAGTCACCTAGTGCAG	8180 fluorescence intensity (a.u.)
TCTCGCCATTTCCGCGGCGCCACCGCACTCCGCCACTCTCCGGAGTCACCTAGTGCAG	9030 fluorescence intensity (a.u.)
CTACCCCTAATTCTAGGCACCGCTCTTCTACCTTTGGCCTCGGAGTCACCTAGTGCAG	10000 fluorescence intensity (a.u.)
ACACTTCATGCGTAATTTCTGTGTGCTGATCGATGAACCACGGAGTCACCTAGTGCAG	8630 fluorescence intensity (a.u.)
CATGTACTCCCTGTTGAATTGCACTTTGACCCCTATCATCCGGAGTCACCTAGTGCAG	14300 fluorescence intensity (a.u.)
GGATCTCGTTTGTCTGGTTTTCGTAAGTTGAGGGACGGGTCGGAGTCACCTAGTGCAG	8380 fluorescence intensity (a.u.)
CATCACTCAACGATCGAGCTTGCGGGTGTTGACCGGCCATCGGAGTCACCTAGTGCAG	8160 fluorescence intensity (a.u.)
ATCCTTGTGTCTCTCTGTCTGCACCACTCTCCTCTCTCTTCGGAGTCACCTAGTGCAG	13400 fluorescence intensity (a.u.)
ATTCTGTCTCGATCTCATGTTCAGAATTTTTCCGCAGTTCCGGAGTCACCTAGTGCAG	8750 fluorescence intensity (a.u.)
CATCGATCTCTCCTAGATTATCTCTCTCTCCAATTTGCTCCGGAGTCACCTAGTGCAG	8310 fluorescence intensity (a.u.)
TCCATCCGTTCCGTTGTGATACCCATGCTGTTATCCGGTTCGGAGTCACCTAGTGCAG	8680 fluorescence intensity (a.u.)
GCCTCATCTCCGTGCATCTCGCTACCTAACCTAGCTAACCCGGAGTCACCTAGTGCAG	8660 fluorescence intensity (a.u.)

Look-ups from the entries so far:
binding signal, GCACGGCTCATTTGCCACTACCGTGCTTGGGCCGGCGCTTCGGAGTCACCTAGTGCAG is entered as 10100 fluorescence intensity (a.u.)
binding signal, CTCCATCCGTTTTAAAATGTTTGACACCGTTGACTTTTTACGGAGTCACCTAGTGCAG is entered as 27300 fluorescence intensity (a.u.)
